{"source": "patent US20250129430A1", "about": "“HIGH ATP-AFFINITY PROTEIN AS THERAPEUTIC TARGET FOR INTRACTABLE CANCER MOLECULAR SUBTYPES AND INHIBITOR THEREOF” (VeraVerse Co., Ltd., priority 2021, published 2025)", "key": {"[1]": {"system": "non-SEM-type gastric cancer cell line", "test": "Cell viability drug screen, AUC summary over non-SEM-type lines", "type": "cell-based, human", "conditions": "in the non-SEM-type gastric cancer cell line"}, "[2]": {"system": "SEM-type gastric cancer cell line", "test": "Cell viability drug screen, AUC summary over SEM-type lines", "type": "cell-based, human", "conditions": "in the SEM-type gastric cancer cell line", "procedure": "An FDA-approved small-molecule pharmacological compound (#L1300) and an anticancer compound for research (#L2000) were purchased from Selecckchem and a 10 mM solution was prepared in DMSO. A total of 1,345 compounds were tested the cell viability of the seven EMT gastric cancer cell lines.\nCells cultured for cell-based drug assay were inoculated into a 96-well white optical plate (Corning) at 5×10^3 cells per well. After 24 hours after inoculation, a 2.5 MJT (primary screen) or a half-log 12-serial diluent (secondary screen) of the pharmacological compound contained in DMSO is added to the cells with a robot using a BioMek FXp liquid processor (Beckman) to add to the cells at 50 mM. The final drug concentration in the 5 ns range and the DMSO specification control (0.5%) were calculated. The cells were then further incubated at 37° C. in a 5% CO2 incubator for 72 hours prior to measuring cell viability using the extra-GLO assay kit (Promega). The luminescent properties were measured after 15 min incubation at room temperature using a plate stacker equipped with a plate stacker. The normalized viability for the DMSO-based control was measured to generate a cell line-specific 12-point dose-response curve for each pharmacological compound, and then the area under the curve (AUC) was calculated using a trapezoidal method."}}, "note": "For some assays here: At least one compound was matched to its structure with a doubt left. Some results were stated once for a whole list of compounds, not compound by compound.", "data": [{"smiles": "CCCCCCCCCCCCCCCC[n+]1ccccc1", "note": "[Cetylpyridinium Chloride]", "values": [{"measurement": "AUC value", "setting": "[1]", "value": "high"}, {"measurement": "AUC norm value", "setting": "[2]", "value": "≤ 1"}]}]}
